Measured values reported in patent US20150272191A1, “FORMULAS COMPRISING OPTIMISED AMINO ACID PROFILES” (N.V. NUTRICIA, priority 2012, published 2015).

tested on: infants; assay: Indicator amino acid oxidation (IAAO) method: essential amino acid requirement (breakpoint) in formula-fed term infants, and recommended intakes calculated from it; assay type: in vivo, human; details: F13CO2 from L[1-13C]phenylalanine indicator, biphasic linear regression crossover model, infants postnatal age <28 days, methionine: diet with excess cysteine (91 mg·kg^−1·d^−1)

SMILES | breakpoint (dietary requirement of the test amino acid) [mg/kg/day]
N[C@@H](Cc1c[nH]c2ccccc12)C(=O)O [Tryptophan, tryptophan] | 15
CC(C)[C@H](N)C(=O)O [Valine, valine] | 110
CC[C@H](C)[C@H](N)C(=O)O [Isoleucine, isoleucine] | 105
CSCC[C@H](N)C(=O)O [Methionine, methionine] | 38
NCCCC[C@H](N)C(=O)O [Lysine, lysine] | 130
C[C@@H](O)[C@H](N)C(=O)O [Threonine, threonine] | 68
CC(C)C[C@H](N)C(=O)O [Leucine, leucine] | 140
